The series can be described thus: general procedure: Fmoc solid-phase peptide synthesis; 2-chlorotrityl chloride resin (Fmoc-Lys(Boc)-O-2-CTC resin); HATU/DIEA (or HBTU, TBTU).

On to “(2S,5S,8S,11S,14S,17R)-17-amino-5-(4-(4-((6-amino-2-(butylamino)-8-hydroxy-9H-purin-9-yl)methyl)benzamido)butyl)-2,8,11-tris(4-aminobutyl)-14-(hydroxymethyl) -4,7,10,13,16,24-hexaoxo-21-(palmitoyloxy)-23-oxa-19-thia-3,6,9,12,15-pentaaza nonatriacontan-1-oic acid”, for which the step yield result (late stage modification step) was “yield 98%”.
Take “(10S,13S,16S,19S,22S,25R)-10-(4-((6-amino-2-(butylamino)-8-hydroxy-9H-purin-9-yl) methyl)phenylcarbamoyl)-25-(tert-butoxycarbonylamino)-13,16,19-tris(4-(tert-butoxy carbonylamino)butyl)-22-(hydroxymethyl)-2,2-dimethyl-4,12,15,18,21,24-hexaoxo-3-oxa-27-thia”: the conjugation yield entry (conjugation step) is listed as “yield 47%”.
